Source: US20070179810A1, “Controls for antimicrobial use and infection” (priority 2006, published 2007)
At least one structure is not confirmed: it was looked up by name or label, or the drawing left a doubt.

Tested on: Klebsiella pneumoniae
Assay: Susceptibility of hospital Klebsiella pneumoniae isolates (annual antibiogram)
Type: cell-based
Conditions: 218 isolates; 2000 vs 2002 and 2003; T test
Source text: The Microbiology Department collected data on the susceptibility of major pathogens and published an annual antibiograrn, a copy of which was placed in each hospital chart as well as sent to all physicians. […] T tests were used in determining statistical significance between the years.

## C[C@H]1COc2c(N3CCN(C)CC3)c(F)cc3c(=O)c(C(=O)O)cn1c23 [Levofloxacin]
  Change in susceptibility of Klebsiella pneumoniae: statistically significant increase in susceptibility
